Assay results published in patent publication EP0331184A2, “Peptide equivalents of non-peptides and methods of design therefor” (THE BOARD OF TRUSTEES OF THE UNIVERSITY OF ALABAMA FOR ITS …, priority 1988, dated 1989).
Not every detail of the peptide structures is certain; ends, links or a residue may be inferred. No end group written: not given here.

Tests used:
[1] = test system: complementary peptide antiserum; assay: Direct ELISA with complementary peptide (OLP) antiserum; assay type: binding, rabbit; conditions: direct assay, peptides attached to the plastic plate, antiserum 1:500 dilution
[2] = test system: purified dog kidney Na⁺K⁺ATPase; assay: Linked-enzyme ATP-hydrolysis assay (ouabain bioassay); assay type: biochemical
actomyosin Ca⁺⁺ATPase = assay: ATP-hydrolysis by actomyosin Ca⁺⁺ATPase (specificity); assay type: biochemical

LQPGVL [OLP, Leu-Gln-Pro-Gly-Val-Leu]
O.D. [1]: ~1.0
ouabain-like activity in the ATP hydrolysis assay ([2]; concentration of 10⁻⁴ M): exhibited activity
activity in the ATP-hydrolysis assay, compared in words ([2]; rank order against comparators (Fig. 2, Fig. 4A)): significantly higher than that exhibited by vasopressin
effect on ATP-hydrolysis by actomyosin Ca⁺⁺ATPase (actomyosin Ca⁺⁺ATPase): failure to affect
